No constants are given. Whether binding was seen depends on the method and setting. In cells and extracts the contact can be indirect. A yes stands for co-enrichment or nearness to the bait. Other partners may have been found. For some of these results: A no says only that the protein was not detected with the bait. Where a sequence is shown, tags or fusion partners need not be part of it.

By UniProt entry, the sequences of proteins in these tests, tags left out.
UniProt P0A978: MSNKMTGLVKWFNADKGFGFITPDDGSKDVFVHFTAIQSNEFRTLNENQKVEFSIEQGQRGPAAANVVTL
UniProt P0A9X9: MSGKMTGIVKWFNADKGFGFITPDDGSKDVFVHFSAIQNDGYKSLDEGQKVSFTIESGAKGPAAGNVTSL

The values below come from publication PMC9283627, “Auxotrophic and prototrophic conditional genetic networks reveal the rewiring of transcription factors in Escherichia coli”.

Assay [1] addresses T1, YdiP with a chromosomal C-terminal FLAG3 tag (E. coli) (UniProt P77402).
T1 sequence: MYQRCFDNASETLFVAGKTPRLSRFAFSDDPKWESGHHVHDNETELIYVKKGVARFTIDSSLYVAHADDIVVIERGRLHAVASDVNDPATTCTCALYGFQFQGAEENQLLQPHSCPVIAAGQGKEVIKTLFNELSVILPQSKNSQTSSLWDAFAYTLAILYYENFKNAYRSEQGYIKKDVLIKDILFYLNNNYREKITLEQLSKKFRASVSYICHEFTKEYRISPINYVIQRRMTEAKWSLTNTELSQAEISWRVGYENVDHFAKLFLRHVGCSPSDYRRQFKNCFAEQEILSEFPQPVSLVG
The experiment in a line: affinity purification with mass spectrometry; endogenously C-terminally FLAG3-tagged YdiP as bait; cells grown in RM at 15 °C; RIPA buffer, MACS microbead purification; n = 3.

For assay [2], the target named is T1, YdiP with a chromosomal C-terminal FLAG3 tag (E. coli). The experiment in a line: affinity purification with mass spectrometry; endogenously C-terminally FLAG3-tagged YdiP as bait; cells grown in RM or MM at 37 °C; RIPA buffer, MACS microbead purification; n = 3.
Assay [3] concerns the target T2, YneJ with a chromosomal C-terminal FLAG3 tag (E. coli) (UniProt P77309).
T2 sequence: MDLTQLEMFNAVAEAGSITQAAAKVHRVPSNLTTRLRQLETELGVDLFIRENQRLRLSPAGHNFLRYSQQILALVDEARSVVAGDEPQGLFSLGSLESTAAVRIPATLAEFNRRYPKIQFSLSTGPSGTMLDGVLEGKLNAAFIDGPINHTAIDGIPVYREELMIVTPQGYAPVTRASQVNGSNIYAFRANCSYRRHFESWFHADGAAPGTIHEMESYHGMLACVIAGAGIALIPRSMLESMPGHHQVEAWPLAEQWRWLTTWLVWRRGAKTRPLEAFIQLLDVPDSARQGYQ
In words: affinity purification with mass spectrometry; endogenously FLAG3-tagged YneJ as bait; cells grown in LB and M9-putrescine/tryptone medium; lysis in RIPA buffer, MACS microbead purification, Orbitrap Elite.

The target in assay [4] is T1, YdiP with a chromosomal C-terminal FLAG3 tag (E. coli). The experiment in a line: affinity purification with mass spectrometry; endogenously C-terminally FLAG3-tagged YdiP as bait; cells grown in MM at 15 °C; RIPA buffer, MACS microbead purification; n = 3.

As for CspG (from UniProt P0A978 1-70), the binding entry was “binds” in assay [1]; “no binding (only cells grown at 37 °C (RM and MM))” in assay [2].

As to CspA (from UniProt P0A9X9 1-70), the binding entry in assay [1] was “binds”; in assay [2], “no binding (only cells grown at 37 °C (RM and MM))”.

B1: GlsB (protein, UniProt P0A6W0 1-308)
chain: MAVAMDNAILENILRQVRPLIGQGKVADYIPALATVDGSRLGIAICTVDGQLFQAGDAQERFSIQSISKVLSLVVAMRHYSEEEIWQRVGKDPSGSPFNSLVQLEMEQGIPRNPFINAGALVVCDMLQGRLSAPRQRMLEVVRGLSGVSDISYDTVVARSEFEHSARNAAIAWLMKSFGNFHHDVTTVLQNYFHYCALKMSCVELARTFVFLANQGKAIHIDEPVVTPMQARQINALMATSGMYQNAGEFAWRVGLPAKSGVGGGIVAIVPHEMAIAVWSPELDDAGNSLAGIAVLEQLTKQLGRSVY
With B1, the binding entry in assay [3] is listed as “binds”.

B2: PuuE (protein, UniProt P50457 1-421)
chain: MSNNEFHQRRLSATPRGVGVMCNFFAQSAENATLKDVEGNEYIDFAAGIAVLNTGHRHPDLVAAVEQQLQQFTHTAYQIVPYESYVTLAEKINALAPVSGQAKTAFFTTGAEAVENAVKIARAHTGRPGVIAFSGGFHGRTYMTMALTGKVAPYKIGFGPFPGSVYHVPYPSDLHGISTQDSLDAIERLFKSDIEAKQVAAIIFEPVQGEGGFNVAPKELVAAIRRLCDEHGIVMIADEVQSGFARTGKLFAMDHYADKPDLMTMAKSLAGGMPLSGVVGNANIMDAPAPGGLGGTYAGNPLAVAAAHAVLNIIDKESLCERANQLGQRLKNTLIDAKESVPAIAAVRGLGSMIAVEFNDPQTGEPSAAIAQKIQQRALAQGLLLLTCGAYGNVIRFLYPLTIPDAQFDAAMKILQDALSD
For the molecule B2, the binding entry in assay [3] is recorded as “binds”.

B3: CspI (protein, UniProt P0A986 1-70)
chain: MSNKMTGLVKWFNPEKGFGFITPKDGSKDVFVHFSAIQSNDFKTLTENQEVEFGIENGPKGPAAVHVVAL
As for B3, the binding entry in assay [1] was “binds”; in assay [2], “no binding (only cells grown at 37 °C (RM and MM))”.

B4: GabT (protein, UniProt P22256 1-426)
chain: MNSNKELMQRRSQAIPRGVGQIHPIFADRAENCRVWDVEGREYLDFAGGIAVLNTGHLHPKVVAAVEAQLKKLSHTCFQVLAYEPYLELCEIMNQKVPGDFAKKTLLVTTGSEAVENAVKIARAATKRSGTIAFSGAYHGRTHYTLALTGKVNPYSAGMGLMPGHVYRALYPCPLHGISEDDAIASIHRIFKNDAAPEDIAAIVIEPVQGEGGFYASSPAFMQRLRALCDEHGIMLIADEVQSGAGRTGTLFAMEQMGVAPDLTTFAKSIAGGFPLAGVTGRAEVMDAVAPGGLGGTYAGNPIACVAALEVLKVFEQENLLQKANDLGQKLKDGLLAIAEKHPEIGDVRGLGAMIAIELFEDGDHNKPDAKLTAEIVARARDKGLILLSCGPYYNVLRILVPLTIEDAQIRQGLEIISQCFDEAKQ
Take B4: the binding entry in assay [3] is on record as “binds”.

B5: PuuA (protein, UniProt P78061 1-472)
chain: METNIVEVENFVQQSEERRGSAFTQEVKRYLERYPNTQYVDVLLTDLNGCFRGKRIPVSSLKKLEKGCYFPASVFAMDILGNVVEEAGLGQEMGEPDRTCVPVLGSLTPSAADPEFIGQMLLTMVDEDGAPFDVEPRNVLNRLWQQLRQRGLFPVVAVELEFYLLDRQRDAEGYLQPPCAPGTDDRNTQSQVYSVDNLNHFADVLNDIDELAQLQLIPADGAVAEASPGQFEINLYHTDNVLEACDDALALKRLVRLMAEKHKMHATFMAKPYEEHAGSGMHIHISMQNNRGENVLSDAEGEDSPLLKKMLAGMIDLMPSSMALLAPNVNSYRRFQPGMYVPTQASWGHNNRTVALRIPCGDRHNHRVEYRVAGADANPYLVMAAIFAGILHGLDNELPLQEEVEGNGLEQEGLPFPIRQSDALGEFIENDHLRRYLGERFCHVYHACKNDELLQFERLITETEIEWMLKNA
Turning to B5, the binding result in assay [3] is reported as “binds”.

B6: CspB (protein, UniProt P36995 1-71)
chain: MSNKMTGLVKWFNADKGFGFISPVDGSKDVFVHFSAIQNDNYRTLFEGQKVTFSIESGAKGPAAANVIITD
With B6, the binding entry in assay [1] was “binds”; in assay [2] it was “no binding (only cells grown at 37 °C (RM and MM))”.

B7: GabD (protein, UniProt P25526 1-482)
chain: MKLNDSNLFRQQALINGEWLDANNGEAIDVTNPANGDKLGSVPKMGADETRAAIDAANRALPAWRALTAKERATILRNWFNLMMEHQDDLARLMTLEQGKPLAEAKGEISYAASFIEWFAEEGKRIYGDTIPGHQADKRLIVIKQPIGVTAAITPWNFPAAMITRKAGPALAAGCTMVLKPASQTPFSALALAELAIRAGVPAGVFNVVTGSAGAVGNELTSNPLVRKLSFTGSTEIGRQLMEQCAKDIKKVSLELGGNAPFIVFDDADLDKAVEGALASKFRNAGQTCVCANRLYVQDGVYDRFAEKLQQAVSKLHIGDGLDNGVTIGPLIDEKAVAKVEEHIADALEKGARVVCGGKAHERGGNFFQPTILVDVPANAKVSKEETFGPLAPLFRFKDEADVIAQANDTEFGLAAYFYARDLSRVFRVGEALEYGIVGINTGIISNEVAPFGGIKASGLGREGSKYGIEDYLEIKYMCIGL
As to B7, the binding result in assay [3] is on record as “binds”.

B8: CspE (protein, UniProt P0A972 1-69)
chain: MSKIKGNVKWFNESKGFGFITPEDGSKDVFVHFSAIQTNGFKTLAEGQRVEFEITNGAKGPSAANVIAL
B8: the binding entry in assay [4] is “binds”; in assay [1], “binds”; in assay [2], “no binding (only cells grown at 37 °C (RM and MM))”.

B9: GadB (protein, UniProt P69910 1-466)
chain: MDKKQVTDLRSELLDSRFGAKSISTIAESKRFPLHEMRDDVAFQIINDELYLDGNARQNLATFCQTWDDENVHKLMDLSINKNWIDKEEYPQSAAIDLRCVNMVADLWHAPAPKNGQAVGTNTIGSSEACMLGGMAMKWRWRKRMEAAGKPTDKPNLVCGPVQICWHKFARYWDVELREIPMRPGQLFMDPKRMIEACDENTIGVVPTFGVTYTGNYEFPQPLHDALDKFQADTGIDIDMHIDAASGGFLAPFVAPDIVWDFRLPRVKSISASGHKFGLAPLGCGWVIWRDEEALPQELVFNVDYLGGQIGTFAINFSRPAGQVIAQYYEFLRLGREGYTKVQNASYQVAAYLADEIAKLGPYEFICTGRPDEGIPAVCFKLKDGEDPGYTLYDLSERLRLRGWQVPAFTLGGEATDIVVMRIMCRRGFEMDFAELLLEDYKASLKYLSDHPKLQGIAQQNSFKHT
Take B9: the binding result in assay [3] is “binds”.

B10: Sad (protein, UniProt P76149 1-462)
chain: MTITPATHAISINPATGEQLSVLPWAGADDIENALQLAAAGFRDWRETNIDYRAEKLRDIGKALRARSEEMAQMITREMGKPINQARAEVAKSANLCDWYAEHGPAMLKAEPTLVENQQAVIEYRPLGTILAIMPWNFPLWQVMRGAVPIILAGNGYLLKHAPNVMGCAQLIAQVFKDAGIPQGVYGWLNADNDGVSQMIKDSRIAAVTVTGSVRAGAAIGAQAGAALKKCVLELGGSDPFIVLNDADLELAVKAAVAGRYQNTGQVCAAAKRFIIEEGIASAFTERFVAAAAALKMGDPRDEENALGPMARFDLRDELHHQVEKTLAQGARLLLGGEKMAGAGNYYPPTVLANVTPEMTAFREEMFGPVAAITIAKDAEHALELANDSEFGLSATIFTTDETQARQMAARLECGGVFINGYCASDARVAFGGVKKSGFGRELSHFGLHEFCNIQTVWKDRI
On to B10, for which the binding entry in assay [3] was “binds”.

B11: PuuC (protein, UniProt P23883 1-495)
chain: MNFHHLAYWQDKALSLAIENRLFINGEYTAAAENETFETVDPVTQAPLAKIARGKSVDIDRAMSAARGVFERGDWSLSSPAKRKAVLNKLADLMEAHAEELALLETLDTGKPIRHSLRDDIPGAARAIRWYAEAIDKVYGEVATTSSHELAMIVREPVGVIAAIVPWNFPLLLTCWKLGPALAAGNSVILKPSEKSPLSAIRLAGLAKEAGLPDGVLNVVTGFGHEAGQALSRHNDIDAIAFTGSTRTGKQLLKDAGDSNMKRVWLEAGGKSANIVFADCPDLQQAASATAAGIFYNQGQVCIAGTRLLLEESIADEFLALLKQQAQNWQPGHPLDPATTMGTLIDCAHADSVHSFIREGESKGQLLLDGRNAGLAAAIGPTIFVDVDPNASLSREEIFGPVLVVTRFTSEEQALQLANDSQYGLGAAVWTRDLSRAHRMSRRLKAGSVFVNNYNDGDMTVPFGGYKQSGNGRDKSLHALEKFTELKTIWISLEA
On to B11, for which the binding result in assay [3] is reported as “binds”.
